Experimental data taken from patent US20240092930A1.
These are yes or no findings as the source states them, for the method shown. Some binding calls cover weakened binding; strength is not graded here.

Amino acid sequences for entries named in this document (tags omitted). A change or cut given only in a name is not applied to a line headed by its entry. Residues count along the entry.
UniProt P09758: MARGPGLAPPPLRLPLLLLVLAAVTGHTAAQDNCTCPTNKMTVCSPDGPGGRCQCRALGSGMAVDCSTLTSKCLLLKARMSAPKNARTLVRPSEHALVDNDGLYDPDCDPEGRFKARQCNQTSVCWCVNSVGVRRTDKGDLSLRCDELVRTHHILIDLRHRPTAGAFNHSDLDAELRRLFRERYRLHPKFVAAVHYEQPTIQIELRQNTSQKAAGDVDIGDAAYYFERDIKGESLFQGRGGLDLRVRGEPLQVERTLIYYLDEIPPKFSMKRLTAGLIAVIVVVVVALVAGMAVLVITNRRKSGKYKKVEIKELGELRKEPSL
human Trop-2 on the surface of cells (CHO/Trop-2 cells; BxPC-3 cells; NCI-N87 cells): residues 27-323 of P09758

Legend:
[1] = target: recombinant human Trop-2-his protein (ACCESSION NO.: NP_002344.2, AA 1-274) (human) (UniProt P09758); assay: ELISA, hybridoma supernatant on coated Trop-2-his
[2] = target: recombinant human Trop-2-his protein (ACCESSION NO.: NP_002344.2, AA 1-274) (human) (UniProt P09758); assay: ELISA, coated human Trop-2-his, purified murine antibody 1 µg/ml
[3] = target: human Trop-2 on the surface of cells (CHO/Trop-2 cells; BxPC-3 cells; NCI-N87 cells) (human) (UniProt P09758); assay: FACS, CHO/Trop-2 cells, purified murine antibody at 13 nM and 0.66 nM
[4] = target: human Trop-2 on the surface of cells (CHO/Trop-2 cells; BxPC-3 cells; NCI-N87 cells) (human) (UniProt P09758); assay: FACS (MFI) on CHO/Trop-2 cells, hybridoma supernatant diluted 100-fold, goat anti-mouse IgG-FITC
[5] = target: human Trop-2 on the surface of cells (CHO/Trop-2 cells; BxPC-3 cells; NCI-N87 cells) (human) (UniProt P09758); assay: FACS, CHO/Trop-2 cells
[6] = target: recombinant human Trop-2-his protein (ACCESSION NO.: NP_002344.2, AA 1-274) (human) (UniProt P09758); assay: ELISA, coated Trop-2-his 0.2 µg/ml

Measured: binding

B1: m11-4 (antibody, mouse IgG1, V domains shown)
VH: QVQLQQPGAELVRPGASVNLSCKASGYTFTSYWINWVKQRPGQGLEWIGNIYPSNSYTNYNQKFKDTATLTVDKSSSTAYMQLSSPTSEDSAVYFCSSYRSDGFAYWGQGTLVTVSA
VL: DILLTQSPAILSVSPGEKVSFSCRASQNIGTSIHWYQQRTNGSPRLLIEFASESISGIPSRFSGSGSGTDFTLTINSVESEDIADYYCQQSNSWPFTFGGGTKLEIK
binds: [1] | [2] | [3] | [4]

B2: chimeric antibody ch11-4 (antibody, human IgG1, V domains shown)
VH: B1 VH
VL: B1 VL
binds: [5] | [6]
